This test has as its system L1210 leukemia ip in BDF1 mice, survival T/C. The test is described as follows: NCI In Vivo Anticancer Drug Screen. Data for tumor model L1210 Leukemia (intraperitoneal) in B6D2F1 (BDF1) mice. The following applies: T/C endpoint: mean survival time, higher T/C = longer survival.
The mark [1] stands for this setting: dose: 400.0 mg/kg/injection, schedule: Q04DX003 (ip), vehicle: saline with Tween-80.
Where [2] appears, read: dose: 400.0 mg/kg/injection, schedule: Q04DX003 (ip), vehicle: saline.
Where [3] appears, read: dose: 400.0 mg/kg/injection, schedule: Q01DX001 (ip), vehicle: saline.
Where [4] appears, read: dose: 400.0 mg/kg/injection, schedule: Q01DX009 (ip), vehicle: saline with Tween-80.

Each structure is given as a SMILES string. The list shows only some results of the screen, not a fair sample: it gathers tests that were run many times, whatever their T/C, doses with no T/C, and many T/C values between a quarter and a half above the control. Further doses and runs are listed elsewhere. T/C is the treated group as % of the vehicle group. Some doses have a count of surviving animals in place of a T/C: the source files T/C as zero there, which appears to mark a toxic dose or a test without result, not a measured value. Some survivor counts are full or nearly so, which does not show that the dose was tolerated: the source hardly ever lists a survival T/C far under the control, and the zero likely stands for such cases as well. Survivors were counted at the toxicity check, usually on the fifth day, unless a day is given; later deaths do not show. Schedule codes are those of the source, taken here to give the interval after Q, in days (D) or hours (H), and the number of doses after X. Some schedule codes hold Z or #, which are not explained here. Where survival is the endpoint, the PubChem record calls one and a half times the control and up active, and a quarter to a half above the control has no call in these data; cut-offs in other NCI protocols can differ.

`CC[n+]1cccc(NC(=O)c2ccc(NC(=O)c3ccc(C(=O)Nc4ccc(C(=O)Nc5ccc[n+](CC)c5)cc4)cc3)cc2)c1`: the T/C (dose: 0.5 mg/kg/injection, schedule: Q01DX009 (ip), vehicle: saline) is 127 % of control; the T/C (dose: 1.0 mg/kg/injection, schedule: Q01DX009 (ip), vehicle: saline, evaluated on day 30) was 130 % of control; the T/C (dose: 1.0 mg/kg/injection, schedule: Q01DX009 (ip), vehicle: saline, run until all animals had died) was 135 % of control; the T/C (dose: 2.0 mg/kg/injection, schedule: Q01DX009 (ip), vehicle: saline, evaluated on day 30) is 139 % of control; the T/C (dose: 2.0 mg/kg/injection, schedule: Q01DX009 (ip), vehicle: saline, run until all animals had died) is 141 % of control; the T/C (dose: 8.0 mg/kg/injection, schedule: Q01DX001 (ip), vehicle: saline, evaluated on day 30) is 126 % of control. The T/C by setting is: (dose: 8.0 mg/kg/injection, schedule: Q01DX001 (ip), vehicle: saline, run until all animals had died) 130 % of control; (dose: 8.0 mg/kg/injection, schedule: Q01DX009 (ip), vehicle: saline) 149 % of control; (dose: 16.0 mg/kg/injection, schedule: Q01DX001 (ip), vehicle: saline, evaluated on day 30) 126 % of control; (dose: 16.0 mg/kg/injection, schedule: Q01DX001 (ip), vehicle: saline, run until all animals had died) 139 % of control; (dose: 32.0 mg/kg/injection, schedule: Q01DX001 (ip), vehicle: saline) 145 % of control. The survivor count runs as follows: (dose: 10.0 mg/kg/injection, schedule: Q01DX Z (ip), vehicle: carboxymethylcellulose (CMC)) 6 of 6; (dose: 32.0 mg/kg/injection, schedule: Q01DX009 (ip), vehicle: saline) 6 of 6; (dose: 128.0 mg/kg/injection, schedule: Q01DX001 (ip), vehicle: saline) 6 of 6.

On to `O=C1CCC(N2C(=O)C3C4c5ccccc5C(c5ccccc54)C3C2=O)C(=O)N1` (stereo not given), for which the survivor count is listed as 3 of 3 under setting [1] and 3 of 3 under setting [2].

Turning to `N#CC1(C(N)=O)OC12CCS(=O)(=O)c1ccccc12` (stereo not given), the survivor count under setting [3] is listed as 4 of 4.

On to `CCOC(=O)C1C(=O)NC(=O)CC1C` (stereo not given), for which the T/C (dose: 100.0 mg/kg/injection, schedule: Q01DX009 (ip), vehicle: saline with Tween-80) is 137 % of control.

On to `CC(CCC/C=C/CCCN(C)C(=N)N)CC(C)C1OC(=O)C(C)C(O)/C=C/C(C)C(O)C(C)C(O)C(C)C(O)CCCC(O)CC2(O)OC(CC(OC(=O)CC(=O)O)CC(O)CC(O)C(C)C(O)/C=C/C=C/C1C)CC(O)C2O` (stereo not given), for which the survivor count is 0 of 6 (dose: 0.19 mg/kg/injection, schedule: Q01DX001 (ip), vehicle: saline); 0 of 6 (dose: 0.39 mg/kg/injection, schedule: Q01DX001 (ip), vehicle: saline); 0 of 6 (dose: 0.78 mg/kg/injection, schedule: Q01DX001 (ip), vehicle: saline); 2 of 6 (dose: 1.56 mg/kg/injection, schedule: Q01DX001 (ip), vehicle: saline); 0 of 6 (dose: 3.12 mg/kg/injection, schedule: Q01DX001 (ip), vehicle: saline); 6 of 6 (dose: 3.2 mg/kg/injection, schedule: Q04DX003 (ip), vehicle: saline). Also, the survivor count runs as follows: (dose: 6.25 mg/kg/injection, schedule: Q01DX001 (ip), vehicle: saline) 0 of 6; (dose: 7.3 mg/kg/injection, schedule: Q04DX003 (ip), vehicle: saline) 6 of 6; (dose: 10.0 mg/kg/injection, schedule: Q04DX003 (ip), vehicle: saline with Tween-80) 2 of 6; (dose: 12.5 mg/kg/injection, schedule: Q01DX001 (ip), vehicle: saline) 3 of 6; (dose: 16.0 mg/kg/injection, schedule: Q04DX003 (ip), vehicle: saline with Tween-80) 1 of 6; (dose: 24.0 mg/kg/injection, schedule: Q04DX003 (ip), vehicle: saline with Tween-80) 0 of 6. Further, the survivor count (dose: 25.0 mg/kg/injection, schedule: Q01DX001 (ip), vehicle: saline) was 3 of 6; the survivor count (dose: 50.0 mg/kg/injection, schedule: Q01DX001 (ip), vehicle: saline) is 0 of 6; the survivor count (dose: 100.0 mg/kg/injection, schedule: Q01DX001 (ip), vehicle: acetone) is recorded as 0 of 6; the survivor count (dose: 200.0 mg/kg/injection, schedule: Q01DX001 (ip), vehicle: acetone) is 0 of 6; the survivor count (dose: 400.0 mg/kg/injection, schedule: Q01DX001 (ip), vehicle: acetone) is listed as 0 of 6.

For the molecule `COC(CN(C)C(=O)NC1CCCCC1)OC`, the survivor count under setting [4] is 3 of 6.

Take `Cc1nc2c(NC(=O)C(F)(F)F)nn(C)c2nc1C`: under setting [4], the survivor count was 2 of 6.

For `COc1ccc(CCNC(=S)NCCc2ccc(OC)c(OC)c2)cc1OC`, the survivor count under setting [2] is 6 of 6.

For `C=CCN1CCCCC1C1(c2ccccc2)CCCC1` (stereo not given), the survivor count was 2 of 6 (dose: 150.0 mg/kg/injection, schedule: Q01DX001 (ip), vehicle: acid diluted with saline) and 0 of 6 (dose: 300.0 mg/kg/injection, schedule: Q01DX001 (ip), vehicle: acid diluted with saline).

As to `C1CCC2[N-]CC3CCCCC3[N-]CC3CCCCC3[N-]CC3CCCCC3[N-]CC2C1.CO.[Co+3]` (stereo not given), the survivor count (dose: 400.0 mg/kg/injection, schedule: Q04DX002 (ip), vehicle: Klucel (hydroxypropylcellulose) (HPC)) is 1 of 3.

As to `C=CC(=O)Oc1ccc([N+](=O)[O-])cc1`, the survivor count is given as 6 of 6 (dose: 100.0 mg/kg/injection, schedule: Q01DX009 (ip), vehicle: saline); 2 of 6 (dose: 100.0 mg/kg/injection, schedule: Q04DX003 (ip), vehicle: saline); 0 of 6 (dose: 200.0 mg/kg/injection, schedule: Q01DX009 (ip), vehicle: saline); 0 of 6 (dose: 400.0 mg/kg/injection, schedule: Q01DX009 (ip), vehicle: saline).

For `CCC(=O)NC(N)=S`, the survivor count (dose: 100.0 mg/kg/injection, schedule: Q01DX009 (ip), vehicle: Klucel (hydroxypropylcellulose) (HPC)) was 0 of 6.

With `Cc1cc(C)c(O)c(C)c1.[Hg]`, the survivor count runs as follows: (dose: 25.0 mg/kg/injection, schedule: Q01DX001 (ip), vehicle: Klucel (hydroxypropylcellulose) (HPC)) 2 of 3; (dose: 50.0 mg/kg/injection, schedule: Q01DX001 (ip), vehicle: Klucel (hydroxypropylcellulose) (HPC)) 0 of 3; (dose: 100.0 mg/kg/injection, schedule: Q01DX001 (ip), vehicle: Klucel (hydroxypropylcellulose) (HPC)) 0 of 3; (dose: 200.0 mg/kg/injection, schedule: Q01DX001 (ip), vehicle: Klucel (hydroxypropylcellulose) (HPC)) 0 of 3; (dose: 400.0 mg/kg/injection, schedule: Q01DX001 (ip), vehicle: Klucel (hydroxypropylcellulose) (HPC)) 0 of 3.

On to `CSc1nnnn1-c1ccccc1`, for which the survivor count reads like this: (dose: 200.0 mg/kg/injection, schedule: Q04DX003 (ip), vehicle: acetone) 6 of 6; under setting [1], 5 of 6.

Turning to `CCCCCCCCCCCCCCCCC(C(=O)O)C(O)(CC(=O)O)C(=O)O` (stereo not given), the survivor count by setting is: (dose: 150.0 mg/kg/injection, schedule: Q01DX Z (ip), vehicle: carboxymethylcellulose (CMC)) 0 of 6; (dose: 300.0 mg/kg/injection, schedule: Q01DX Z (ip), vehicle: carboxymethylcellulose (CMC)) 0 of 6; (dose: 600.0 mg/kg/injection, schedule: Q01DX Z (ip), vehicle: carboxymethylcellulose (CMC)) 0 of 6.

As to `CN(C)CCOC(=O)c1ccc(CCl)cc1`, where the note is “dose: 350.0 mg/kg/injection, schedule: Q01DX009 (ip), vehicle: saline”, the survivor count is reported as 4 of 6.

Turning to `CN(C)C1c2ccccc2-c2ccc(N)cc21` (stereo not given), the survivor count runs as follows: (dose: 200.0 mg/kg/injection, schedule: Q01DX001 (ip), vehicle: carboxymethylcellulose (CMC)) 0 of 4; (dose: 400.0 mg/kg/injection, schedule: Q01DX001 (ip), vehicle: carboxymethylcellulose (CMC)) 0 of 4.

Consider `COc1ccc(N)cc1NC(C)=O`, for which the survivor count under setting [3] is 0 of 4.

For the origin of these results see PubChem BioAssay AID248 (DTP/NCI, 2004).
